The values below come from PMC9508819, “Rbp95 binds to 25S rRNA helix H95 and cooperates with the Npa1 complex during early pre-60S particle maturation”.

Sequences of proteins named here, by UniProt entry; tags and fusion partners are left off.
UniProt P34241: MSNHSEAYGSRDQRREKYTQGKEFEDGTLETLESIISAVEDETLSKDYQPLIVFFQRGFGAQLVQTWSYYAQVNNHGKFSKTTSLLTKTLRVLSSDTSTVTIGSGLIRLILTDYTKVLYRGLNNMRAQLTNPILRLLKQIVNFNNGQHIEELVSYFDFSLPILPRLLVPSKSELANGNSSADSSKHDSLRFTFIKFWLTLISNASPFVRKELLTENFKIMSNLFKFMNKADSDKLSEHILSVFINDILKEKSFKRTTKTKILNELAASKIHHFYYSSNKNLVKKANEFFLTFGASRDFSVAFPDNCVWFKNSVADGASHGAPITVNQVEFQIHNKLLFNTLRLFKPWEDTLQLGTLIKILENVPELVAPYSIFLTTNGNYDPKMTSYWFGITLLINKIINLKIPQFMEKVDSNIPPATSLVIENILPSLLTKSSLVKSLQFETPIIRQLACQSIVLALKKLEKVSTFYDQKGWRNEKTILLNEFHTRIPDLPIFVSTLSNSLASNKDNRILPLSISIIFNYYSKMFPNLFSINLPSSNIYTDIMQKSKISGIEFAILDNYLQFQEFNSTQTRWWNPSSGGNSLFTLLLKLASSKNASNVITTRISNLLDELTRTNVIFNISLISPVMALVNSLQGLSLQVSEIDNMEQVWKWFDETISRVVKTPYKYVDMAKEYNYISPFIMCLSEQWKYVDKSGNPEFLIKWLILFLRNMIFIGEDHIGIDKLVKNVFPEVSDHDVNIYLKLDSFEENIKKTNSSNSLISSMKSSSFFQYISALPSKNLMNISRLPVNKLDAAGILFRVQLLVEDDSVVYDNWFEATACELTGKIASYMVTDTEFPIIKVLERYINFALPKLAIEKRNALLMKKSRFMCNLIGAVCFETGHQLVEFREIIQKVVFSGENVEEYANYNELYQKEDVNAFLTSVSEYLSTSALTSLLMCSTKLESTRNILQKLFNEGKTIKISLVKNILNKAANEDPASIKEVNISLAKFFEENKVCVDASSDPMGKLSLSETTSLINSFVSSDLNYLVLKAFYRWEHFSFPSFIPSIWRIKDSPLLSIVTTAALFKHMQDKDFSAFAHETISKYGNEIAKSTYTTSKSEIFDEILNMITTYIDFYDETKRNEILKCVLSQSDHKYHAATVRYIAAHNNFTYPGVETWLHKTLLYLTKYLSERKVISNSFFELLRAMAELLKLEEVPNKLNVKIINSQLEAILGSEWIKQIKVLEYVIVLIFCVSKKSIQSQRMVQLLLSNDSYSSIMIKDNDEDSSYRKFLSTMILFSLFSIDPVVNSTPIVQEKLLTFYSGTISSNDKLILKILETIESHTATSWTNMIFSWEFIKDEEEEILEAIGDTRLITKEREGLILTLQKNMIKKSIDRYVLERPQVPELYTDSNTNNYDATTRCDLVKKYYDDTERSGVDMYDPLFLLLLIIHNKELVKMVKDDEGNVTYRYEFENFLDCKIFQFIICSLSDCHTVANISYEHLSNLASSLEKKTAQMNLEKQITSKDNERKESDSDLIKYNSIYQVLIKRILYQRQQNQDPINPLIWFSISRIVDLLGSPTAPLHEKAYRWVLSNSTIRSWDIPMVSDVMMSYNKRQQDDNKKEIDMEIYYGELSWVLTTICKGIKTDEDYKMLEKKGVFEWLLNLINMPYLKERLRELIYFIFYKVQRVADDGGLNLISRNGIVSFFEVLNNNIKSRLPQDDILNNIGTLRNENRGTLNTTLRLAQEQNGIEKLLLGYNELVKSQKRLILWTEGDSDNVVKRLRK
UniProt P15646: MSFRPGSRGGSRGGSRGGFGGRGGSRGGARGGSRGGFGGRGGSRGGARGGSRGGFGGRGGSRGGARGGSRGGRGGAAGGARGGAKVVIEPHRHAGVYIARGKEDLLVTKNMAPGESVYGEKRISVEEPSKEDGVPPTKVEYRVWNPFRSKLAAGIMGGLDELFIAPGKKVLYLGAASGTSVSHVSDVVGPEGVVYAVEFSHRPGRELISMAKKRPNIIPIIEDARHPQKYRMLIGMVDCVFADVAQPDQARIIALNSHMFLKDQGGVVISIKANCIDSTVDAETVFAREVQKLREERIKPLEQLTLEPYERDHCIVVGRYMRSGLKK
UniProt Q12499: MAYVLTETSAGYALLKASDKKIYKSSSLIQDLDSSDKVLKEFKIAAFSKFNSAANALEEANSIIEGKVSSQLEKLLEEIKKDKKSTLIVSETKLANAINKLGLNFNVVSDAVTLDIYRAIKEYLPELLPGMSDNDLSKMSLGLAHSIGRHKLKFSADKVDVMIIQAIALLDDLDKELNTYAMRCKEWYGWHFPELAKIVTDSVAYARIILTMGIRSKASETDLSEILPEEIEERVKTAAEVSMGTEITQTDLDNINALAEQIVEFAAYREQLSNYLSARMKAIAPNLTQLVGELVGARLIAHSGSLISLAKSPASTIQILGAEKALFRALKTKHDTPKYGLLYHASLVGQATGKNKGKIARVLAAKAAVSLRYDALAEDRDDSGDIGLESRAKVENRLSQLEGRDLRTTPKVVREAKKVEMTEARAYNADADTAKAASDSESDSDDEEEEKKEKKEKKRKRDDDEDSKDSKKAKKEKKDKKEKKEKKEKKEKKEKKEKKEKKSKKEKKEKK
UniProt P33322: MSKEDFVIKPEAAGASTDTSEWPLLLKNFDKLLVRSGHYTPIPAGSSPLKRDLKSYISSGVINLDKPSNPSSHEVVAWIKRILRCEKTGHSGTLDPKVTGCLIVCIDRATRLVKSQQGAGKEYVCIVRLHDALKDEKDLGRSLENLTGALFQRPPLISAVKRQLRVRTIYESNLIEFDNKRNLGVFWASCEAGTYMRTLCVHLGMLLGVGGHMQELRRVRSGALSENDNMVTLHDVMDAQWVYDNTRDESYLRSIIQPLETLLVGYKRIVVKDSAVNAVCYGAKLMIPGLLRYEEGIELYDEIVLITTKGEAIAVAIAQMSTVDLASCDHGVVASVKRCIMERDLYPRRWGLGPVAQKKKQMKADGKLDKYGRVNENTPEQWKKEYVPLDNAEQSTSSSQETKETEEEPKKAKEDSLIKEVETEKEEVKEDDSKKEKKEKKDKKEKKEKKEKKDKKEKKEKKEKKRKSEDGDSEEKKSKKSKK
UniProt Q05022: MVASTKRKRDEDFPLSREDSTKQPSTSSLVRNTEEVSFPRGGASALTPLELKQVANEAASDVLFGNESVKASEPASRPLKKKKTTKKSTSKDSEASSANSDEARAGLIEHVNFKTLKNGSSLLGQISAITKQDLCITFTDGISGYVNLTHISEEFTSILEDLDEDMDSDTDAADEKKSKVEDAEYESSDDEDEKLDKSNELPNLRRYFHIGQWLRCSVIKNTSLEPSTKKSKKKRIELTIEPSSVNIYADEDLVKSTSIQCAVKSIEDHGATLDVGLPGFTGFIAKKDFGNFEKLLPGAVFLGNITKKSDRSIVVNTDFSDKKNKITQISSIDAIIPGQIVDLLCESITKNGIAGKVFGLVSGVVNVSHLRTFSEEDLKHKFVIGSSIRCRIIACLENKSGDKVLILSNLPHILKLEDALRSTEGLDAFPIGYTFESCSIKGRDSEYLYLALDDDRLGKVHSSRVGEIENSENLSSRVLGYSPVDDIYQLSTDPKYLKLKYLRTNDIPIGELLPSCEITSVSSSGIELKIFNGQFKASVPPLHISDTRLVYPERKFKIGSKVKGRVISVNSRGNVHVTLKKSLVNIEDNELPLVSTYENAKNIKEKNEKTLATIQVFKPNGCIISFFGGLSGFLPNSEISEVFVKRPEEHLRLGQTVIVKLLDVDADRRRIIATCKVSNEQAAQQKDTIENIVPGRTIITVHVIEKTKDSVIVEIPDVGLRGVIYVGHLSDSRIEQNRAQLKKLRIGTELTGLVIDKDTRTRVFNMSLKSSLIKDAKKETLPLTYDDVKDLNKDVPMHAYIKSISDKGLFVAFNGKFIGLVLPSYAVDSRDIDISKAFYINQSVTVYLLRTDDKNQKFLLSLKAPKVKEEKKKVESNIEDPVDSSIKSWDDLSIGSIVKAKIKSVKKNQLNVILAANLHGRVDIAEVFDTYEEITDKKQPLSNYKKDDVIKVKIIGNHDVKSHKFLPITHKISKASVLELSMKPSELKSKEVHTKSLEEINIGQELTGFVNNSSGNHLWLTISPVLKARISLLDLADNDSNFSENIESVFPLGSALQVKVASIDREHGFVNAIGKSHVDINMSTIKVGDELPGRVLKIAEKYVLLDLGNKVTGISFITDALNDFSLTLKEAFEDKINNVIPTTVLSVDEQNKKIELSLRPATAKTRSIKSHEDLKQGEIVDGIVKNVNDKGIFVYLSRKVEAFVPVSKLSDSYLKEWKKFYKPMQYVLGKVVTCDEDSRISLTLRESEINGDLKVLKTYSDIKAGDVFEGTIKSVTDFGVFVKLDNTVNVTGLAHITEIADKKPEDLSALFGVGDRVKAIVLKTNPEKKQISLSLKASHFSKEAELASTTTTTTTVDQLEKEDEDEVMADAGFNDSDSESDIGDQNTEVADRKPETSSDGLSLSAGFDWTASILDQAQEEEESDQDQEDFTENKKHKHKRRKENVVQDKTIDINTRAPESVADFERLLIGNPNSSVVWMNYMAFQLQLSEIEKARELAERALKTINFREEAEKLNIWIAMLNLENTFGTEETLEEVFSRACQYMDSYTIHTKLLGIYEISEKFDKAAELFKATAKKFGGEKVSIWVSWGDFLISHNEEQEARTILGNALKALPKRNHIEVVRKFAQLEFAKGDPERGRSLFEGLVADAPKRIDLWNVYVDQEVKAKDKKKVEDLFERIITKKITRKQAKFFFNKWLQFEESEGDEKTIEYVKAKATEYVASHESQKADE

Results are given in words; binding and its absence hold for the method and conditions named. Binding seen in cells or lysates may run through a third protein. These calls come from enrichment with a bait or labelling near it, and not all partners need be listed.

Test [1] addresses T1, Rbp95-TAP (S. cerevisiae) (UniProt P25617).
T1 sequence: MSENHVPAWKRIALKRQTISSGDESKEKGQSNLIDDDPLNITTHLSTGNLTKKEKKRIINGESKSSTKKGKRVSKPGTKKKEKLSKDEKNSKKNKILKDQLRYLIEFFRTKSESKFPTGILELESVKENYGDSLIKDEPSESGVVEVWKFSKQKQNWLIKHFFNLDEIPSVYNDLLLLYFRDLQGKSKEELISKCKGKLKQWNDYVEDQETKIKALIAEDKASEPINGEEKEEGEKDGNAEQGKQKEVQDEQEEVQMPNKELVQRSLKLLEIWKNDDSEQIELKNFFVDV
Put plainly: affinity purification with mass spectrometry; tandem-affinity purification from yeast lysate (IgG Sepharose, TEV elution, Calmodulin Sepharose, EGTA elution); 50 mM Tris-HCl pH 7.5, 100 mM NaCl, 1.5 mM MgCl2, 0.1% NP-40, 1 mM DTT; selected Coomassie-stained bands excised and identified by LC-MS/MS.

Another test has as its target T2, Ssf1-TAP (S. cerevisiae) (UniProt P38789).
T2 sequence: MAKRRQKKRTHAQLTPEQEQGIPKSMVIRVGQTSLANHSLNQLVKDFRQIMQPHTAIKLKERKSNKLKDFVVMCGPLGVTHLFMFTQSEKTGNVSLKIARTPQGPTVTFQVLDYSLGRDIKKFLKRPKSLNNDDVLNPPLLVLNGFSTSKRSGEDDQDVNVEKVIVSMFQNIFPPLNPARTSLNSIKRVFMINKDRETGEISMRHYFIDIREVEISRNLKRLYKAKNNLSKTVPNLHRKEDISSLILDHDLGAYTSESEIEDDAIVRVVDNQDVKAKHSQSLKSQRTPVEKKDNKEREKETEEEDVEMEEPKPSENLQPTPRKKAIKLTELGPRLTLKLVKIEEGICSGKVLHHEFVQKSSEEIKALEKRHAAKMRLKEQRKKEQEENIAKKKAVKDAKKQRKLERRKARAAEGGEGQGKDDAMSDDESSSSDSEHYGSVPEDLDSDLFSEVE
Nature of the test: affinity purification with mass spectrometry; tandem-affinity purification from yeast lysate, elution from Calmodulin Sepharose with 0.8% ammonium hydroxide; label-free semi-quantitative LC-MS/MS (LFQ, MaxQuant); for Figure 8A, B from wild-type and Δrbp95 strains.

In test [2] the target is T1, Rbp95-TAP (S. cerevisiae). The description is as above.
For a further test, the target named is T3, Noc2-TAP (S. cerevisiae) (UniProt P39744).
T3 sequence: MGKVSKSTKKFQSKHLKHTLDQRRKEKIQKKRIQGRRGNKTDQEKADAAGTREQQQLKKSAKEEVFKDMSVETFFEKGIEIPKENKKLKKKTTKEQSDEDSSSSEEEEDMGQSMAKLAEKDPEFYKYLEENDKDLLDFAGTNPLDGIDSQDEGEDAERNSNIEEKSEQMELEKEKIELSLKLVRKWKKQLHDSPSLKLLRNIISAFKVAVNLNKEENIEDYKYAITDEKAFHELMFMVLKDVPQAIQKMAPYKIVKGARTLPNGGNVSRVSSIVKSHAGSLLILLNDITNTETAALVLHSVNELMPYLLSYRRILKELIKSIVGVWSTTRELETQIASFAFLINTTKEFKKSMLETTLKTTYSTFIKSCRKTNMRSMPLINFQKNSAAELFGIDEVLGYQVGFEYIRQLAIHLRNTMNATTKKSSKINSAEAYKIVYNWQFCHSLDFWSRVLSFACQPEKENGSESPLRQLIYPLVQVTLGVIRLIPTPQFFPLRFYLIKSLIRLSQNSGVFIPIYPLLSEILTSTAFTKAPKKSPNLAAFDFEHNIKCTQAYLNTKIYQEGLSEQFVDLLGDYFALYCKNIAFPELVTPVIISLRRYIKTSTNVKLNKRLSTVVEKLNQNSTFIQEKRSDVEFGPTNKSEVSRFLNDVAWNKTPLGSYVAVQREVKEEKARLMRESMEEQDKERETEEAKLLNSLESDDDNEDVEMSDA
Described as above.

Test [3] deals with Npa1-TurboID (S. cerevisiae) (UniProt P34241). Put plainly: proximity labelling; TurboID: C-terminally TurboID-tagged bait from the CUP1 promoter in yeast, 500 uM copper sulfate and biotin for 1 h; biotinylated proteins purified on streptavidin agarose, LC-MS/MS; enrichment against NLS-GFP-TurboID control.

Take “Nop1 (from UniProt P15646 1-327) (enzyme)”: the binding entry in test [1] is on record as “binds”.

For Nop58 (from UniProt Q12499 1-511), the binding entry in test [1] is given as “binds”.

With “Cbf5 (from UniProt P33322 1-483) (enzyme)”, the binding entry in test [1] is “binds”.

On to Rrp5 (from UniProt Q05022 1-1729), for which the binding result (in test [1]; in the test with Ssf1-TAP (S. cerevisiae)) was “binds” each time.

B1: Nop4 (protein, UniProt P37838 1-685)
chain: MEETIENVEVPSSNVSKQNDDGLDMKTLFVRSIPQDVTDEQLADFFSNFAPIKHAVVVKDTNKRSRGFGFVSFAVEDDTKEALAKARKTKFNGHILRVDIAKRRDRSKKTSEVVEKSTPESSEKITGQNNEDEDDADGEDSMLKGKPKLIIRNMPWSCRDPVKLKKIFGRYGTVVEATIPRKRDGKLCGFAFVTMKKISNCRIALENTKDLKIDGRKVAVDFAVQKNRWEDYKKAQPEMNDKDDNESGNEDAEENHDDEEDENEEEDRQVDQASKNKESKRKAQNKREDFSVFVRNVPYDATEESLAPHFSKFGSVKYALPVIDKSTGLAKGTAFVAFKDQYTYNECIKNAPAAGSTSLLIGDDVMPEYVYEGRVLSITPTLVREDAGRMAEKNAAKRKEALGKAPGEKDRRNLYLLNEGRVVEGSKMADLLTNTDMEIREKSYKLRVEQLKKNPSLHLSMTRLAIRNLPRAMNDKALKALARKAVVEFATEVKNKERHPLSKEEIIRSTKEKYKFMGPDEIEAQKKKDKKSGVVKQAKVIMEVKGSTAGRSRGYGFVEFRDHKNALMGLRWLNCHAVTSDEILEGLNDDEKKQVDNDLGKGRRLCVEFAIENSNVVKRRREQLKQARTKRTRPDNEDTGDVGESENKKPKKEEATTPTNPDDKKMGDDIKRIIGFKRKRKHAKK
In the case of B1, the binding entry (in test [2]; with Ssf1-TAP (S. cerevisiae)) was “binds” in each case.

B2: Rrp14 (protein, UniProt P36080 1-434)
chain: MSNSLEERLRANSSAFDGLLALIPAKYYYDEKSQEQWKAKKKTKEQSKNDKLKKLDPEQRDDETSSTLEVMKKKEKDAKPVVLPGEKFKHMKMQKQKEATSKVEGDSDLNVEVNDPMIIAPDEDEEEEEDIKVIFDDEGNEIPLESKKDTTEPDRSVEKKSITEEEKLQRKKNLEALRSKLQAKISDMKSKRKAPGSREAILAQRKRKEELKKRKRLESEQEQDQDEIASDSDMEDIDSDLENNSKKRFKKGKKDSEINADGVMFQNIIFDDGARATSDLQRLRKAGRTKGPAKNDVKSHLKLLEAKKNKMEAKDELEQIKQKEKEKWQKAMLQAEGIKIRDDEKLLRKAIKRKEAQKRKSAIEWSERKRVVEDTISERQKRREENLRIRKDNKGKKRNKQEKMKRKYVGSAVPKKRAGFEGRLKTGKKKGGPK
Turning to B2, the binding result in test [1] is given as “binds”.

B3: Rex4 (enzyme, UniProt Q08237 1-289)
chain: MALSSNWQALLASESNPTSNGKNKQSNRKIRNVKKVSKTVNVSSTTQYAPRKRKNGSKIMDMVYNMNKEISKHEKDKLEGKVFEFNPNKANTSTTIKEPVKVGISEDTRINSNKSKEIGKYIAMDCEFVGVGPEGKESALARISIVNYFGHVVLDEFVKPREKVVEWRTWVSGIKPEHMKNAITFKEAQKKTADILEGRILVGHALKHDLEALMLSHPKSLLRDTSRHLPFRKLYAKGKTPSLKKLTREVLKISIQEGEHSSVEDARATMLLYKKEKTEFEKIHRNTFN
Turning to B3, the binding entry in the test with Ssf1-TAP (S. cerevisiae) and in the test with Noc2-TAP (S. cerevisiae) was “binds” each time.

B4: Dbp9 (enzyme, UniProt Q06218 1-594)
chain: MSYEKKSVEGAYIDDSTTFEAFHLDSRLLQAIKNIGFQYPTLIQSHAIPLALQQKRDIIAKAATGSGKTLAYLIPVIETILEYKKTIDNGEENGTLGIILVPTRELAQQVYNVLEKLVLYCSKDIRTLNISSDMSDSVLSTLLMDQPEIIVGTPGKLLDLLQTKINSISLNELKFLVVDEVDLVLTFGYQDDLNKIGEYLPLKKNLQTFLMSATLNDDIQALKQKFCRSPAILKFNDEEINKNQNKLLQYYVKVSEFDKFLLCYVIFKLNLIKGKTLIFVNNIDRGYRLKLVMEQFGIKSCILNSELPVNSRQHIVDQFNKNVYQLLIATDDTEYIKEEDDEIEEGHNTENQEEKSLEGEPENDKKPSKKKKVQVKKDKEYGVSRGVDFKNVACVLNFDLPTTAKSYVHRVGRTARGGKTGTAISFVVPLKEFGKHKPSMLQTAKKDERILSRIIKQQSKLGLELQPYKFDQKQVEAFRYRMEDGFRAVTQVAIREARVKELKQELLASEKLKRHFEENPKELQSLRHDKELHPARVQQHLKRVPDYLLPESARGNGTKVKFVPFHNAKKRHSHKKGRVSKPKNGKVDPLKNFK
Turning to B4, the binding result (in test [1]; in test [2]; with Noc2-TAP (S. cerevisiae)) was “binds” in each case.

B5: Upa2 (Ymr310c) (protein, UniProt Q04867 1-317)
chain: MSSTRKFKKVEKPLSQTRHYSLCIPTTLVSDCRNLSQITHKVYQVAKFASLFNVSEVVILEDNSQVDATKKKISTAKLILALLQYFVTPPYLRNTVFNEKFRPYLTAASKLPRLSTLPFTRYQKQDHGRYREGLTIKMQKPTLARKKIGKVFKQTKYINIGKSKALALQSQLVPINARVTIDTITRKIVSPQEAYGDFTGLDSQYGYYTRIASSFTDLFMKGPLKEGYTQSVYVPLTTRDTSIPELSSLPTAETNPHILLVFSTWDTLARAFKLDQDQFVDCQGPQEFFDAQLPCPVSNSDVADAIPMTLTTLSTVF
With B5, the binding result (in test [2]; in the test with Ssf1-TAP (S. cerevisiae); in the test with Noc2-TAP (S. cerevisiae)) was “binds” each time.

B6: Upa1 (Ygr283c) (protein, UniProt P53336 1-341)
chain: MAVKHKSESLKHEEGAAKKAKTGLLKLKKIMDIESNVVKYSICIPTTVIDNCNNLEQVTFTAYQIARTAVLFNVQEIIVLDQSKDKKHEKKSRSKETISDCLLLATLLQYFVTPPNLLDTTFKKKNKLYLKCASTFPPLNQLPFMNASAEQHYKEGLSIARDSSKGKSDDALTNLVYIGKNQIITLSNQNIPNTARVTVDTERKEVVSPIDAYKGKPLGYHVRMASTLNEVSEGYTKIVWVNSGDFHYDEELSKYHKVETKLPYIAKLKKSSTSEKPCNILLIFGKWGHLKRCFRRSDLESSSLHHYFSGQLQFPASVPQGNIPIQDSLPIALTMFQRWAS
Turning to B6, the binding result (in test [2]; with Ssf1-TAP (S. cerevisiae); with Noc2-TAP (S. cerevisiae)) was “binds” each time.

B7: Nop13 (protein, UniProt P53883 1-403)
chain: MSETELSKEDAVTKKDNEEQVKKALLDPTKKRKAEDEIEIDLKSSIPLSKKQKRLLRRGKVTLEELNAKYNIDPKSIEEYKEDAEKKKSGASEKDAQGEESTINTPTGDESGEVVKKKKKDENKYGVWIGNLSFDTTKDDLVRFFIAKTKDNEDEKSRVTEQDITRLSMPRVAAKNSNAMKNKGFCYMFFKNVEQMKAVLELSESHLNGRNMLIKDSENYSGRPDKDDLVAMSKNPPSRILFVGNLSFDVTDDLLRKHFQHCGDIVKIRMATFEDSGKCKGFAFIDFKNEEGSTNALKDKSCRKIAGRPLRMEYGEDRSKRQVRKKVENVSRNNSSSFDISNNKGYDRAGQDNGSKPEYKRSNANRRPPVDSNNRTKSSVALATAQRGSAAIVPSQGKKVKFD
As for B7, the binding entry in test [1] and in test [2] was “binds” each time.

B8: Rsa3 (protein, UniProt Q05942 1-220)
chain: MSAGDISAINIKSVKKNRRRKKRRTADVSSSDSSSSDPSSESEKEEIQNGAIEEHVGENGKSDHVFSKGNDEDKQEDIAIEVSDVELTDEESKDLKLNSKEVIDDLTKISLSKIPEPTKSQNKEGFMNASKIAENIKLAREEYNELAENFVPKGKDKTKLREEYLNLLFENYGDDINRLRAAPDFTNKSLSILADALQEGIGMFDIGELELVLKNKEMEN
For the molecule B8, the binding entry in test [2] and in test [3] was “binds” in each case.
